Results are given in words; binding and its absence hold for the method and conditions named. In cells and extracts the contact can be indirect. Some entries that bind do so weakly or less than the wild type.
Biological target: T1, Vitamin D receptor (VDR), expressed in human cells (not stated (human or mouse cDNA cloned)) (UniProt P11473)
T1 sequence: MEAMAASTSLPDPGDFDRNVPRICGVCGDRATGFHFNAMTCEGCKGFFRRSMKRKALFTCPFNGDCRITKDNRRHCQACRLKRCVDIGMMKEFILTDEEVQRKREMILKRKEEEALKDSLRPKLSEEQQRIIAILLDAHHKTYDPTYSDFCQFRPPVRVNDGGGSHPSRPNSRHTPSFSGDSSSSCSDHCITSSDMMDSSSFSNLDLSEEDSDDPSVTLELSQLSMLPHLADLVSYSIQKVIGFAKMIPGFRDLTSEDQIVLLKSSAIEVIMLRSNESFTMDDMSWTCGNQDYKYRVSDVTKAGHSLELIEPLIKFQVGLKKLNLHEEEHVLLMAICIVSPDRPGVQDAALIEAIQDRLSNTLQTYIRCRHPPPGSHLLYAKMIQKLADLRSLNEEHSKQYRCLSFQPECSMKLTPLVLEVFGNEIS
Experiment: co-IP; human cells (HOK and NCM460 cell lines) co-transfected with plasmids; lysate supernatants incubated with HA or Flag antibodies and protein A/G beads for four hours; SDS-PAGE and western blot

Chains of the proteins cited; added tags and fusions are not shown.
UniProt P67809: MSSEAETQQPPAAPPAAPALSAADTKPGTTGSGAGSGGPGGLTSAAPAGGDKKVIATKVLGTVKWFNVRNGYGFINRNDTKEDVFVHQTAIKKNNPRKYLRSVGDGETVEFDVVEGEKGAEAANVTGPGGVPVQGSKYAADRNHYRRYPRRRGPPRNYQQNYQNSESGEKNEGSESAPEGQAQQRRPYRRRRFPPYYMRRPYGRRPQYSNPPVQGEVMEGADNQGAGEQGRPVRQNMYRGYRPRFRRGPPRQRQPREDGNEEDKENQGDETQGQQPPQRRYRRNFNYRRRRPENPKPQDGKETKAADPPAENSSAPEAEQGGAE

binding: binds
Substance: Y box-binding protein 1 (YBX-1), expressed in human cells (from UniProt P67809 1-324)

Source: article PMC8355874
